Laboratory results from the supplement of paper PMC9877034.
Structures can show the parent of a compound that is named as a salt. ± gives the standard deviation of the averaged measurements. The full ranking holds about 1,000 compounds; the median of “cFRET/donor change relative to DMSO, normalised to beta-lapachone positive control (supercomplex I-IV assembly)” is about 0.18, and the lowest 2% start at about -1. This is one part of the list.

test system: C2C12 (NDUFB8-AcGFP / COX8A-DsRed-Monomer FRET reporter); assay: cFRET/donor change relative to DMSO, normalised to beta-lapachone positive control (supercomplex I-IV assembly) (fraction of beta-lapachone effect); higher = more respiratory supercomplex assembly; conditions: 40 µM; 24 h
Experimental: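 Cells were treated with 40 uM compound for 24 h and imaged on an IN Cell Analyzer 6000. Corrected FRET was divided by donor signal (cFRET/donor) and measured in two replicate experiments. The score is (mean cFRET/donor of compound - mean DMSO) / (mean beta-lapachone 40 uM - mean DMSO). Compounds flagged for prominent cell death, abnormal morphology or decreased cell number were excluded.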

Structure (SMILES) | cFRET/donor change
Brc1c(NC2=NCCN2)ccc2nccnc12 | 0.252
CN(C)CCOC(=O)COc1ccc(Cl)cc1 [Centrophenoxine hydrochloride] | 0.0376
OC(CCN1CCCCC1)(c1ccccc1)C1CCCCC1 (configuration not stated) [Trihexyphenidyl hydrochloride] | 0.294
N=C(N)N/N=C/c1c(Cl)cccc1Cl [Guanabenz acetate] | 0.39
N[C@@H](C(=O)N[C@@H]1C(=O)N2C(C(=O)O)=C(Cl)CS[C@H]12)c1ccccc1 [Cefaclor] | 0.459
NCCS(=O)O [Hypotaurine] | 0.0357
CC(C)NC[C@H](O)c1ccc(O)c(O)c1 [R(-)-Isoproterenol (+)-bitartrate] | -0.0064
CN(C)[C@@H]1C(O)=C(C(N)=O)C(=O)[C@@]2(O)C(O)=C3C(=O)c4c(O)ccc(Cl)c4[C@@H](O)[C@H]3C[C@@H]12 [Demeclocycline hydrochloride] | 1.7
O=CN(O)CCCP(=O)(O)O [Fosmidomycin sodium salt hydrate] | 0.0766
CCc1cccc2c3c([nH]c12)C(CC)(CC(=O)O)OCC3 (configuration not stated) [Etodolac] | 0.0376
NOCC(=O)O [O-(Carboxymethyl)hydroxylamine hemihydrochloride] | 0.116
O=C1N(c2ccccc2)c2ccccc2C1(Cc1ccncc1)Cc1ccncc1 [Linopirdine] | 0.146
CN(C)CCC(c1ccc(Br)cc1)c1ccccn1 (racemic) [(±)-Brompheniramine maleate] | 0.0175
Cc1ccccc1N1C(=O)c2cc(S(N)(=O)=O)c(Cl)cc2NC1C (configuration not stated) [Metolazone] | 0.165 ± 0.076
CCCn1c(=O)c2[nH]c(-c3ccc(S(=O)(=O)O)cc3)nc2n(CCC)c1=O [1,3-Dipropyl-8-p-sulfophenylxanthine] | 0.138
CNCCC(Oc1ccccc1OC)c1ccccc1 (configuration not stated) [Nisoxetine hydrochloride] | 0.186
CC1CNCCN1S(=O)(=O)c1cccc2cnccc12 (configuration not stated) | 0.53
CC(C)Cc1ccc(C(C)C(=O)O)cc1 (racemic) [(±)-Ibuprofen] | 0.406
CCOC(=O)C1=C[C@]2(CC)CCCN3CCc4c(n1c1ccccc41)[C@@H]32 [Vinpocetine] | 0.169
C[C@]12CC[C@@H]3c4ccc(O)cc4CC[C@H]3[C@@H]1CCC2=O [Estrone] | 0.406
CCCCCCCC/C=C\CCCCCCCC(=O)NCCc1ccc(O)c(O)c1 [N-Oleoyldopamine] | 2.97
CC(=O)C(C)=O [2,3-Butanedione] | 0.341
COc1cc(C(O)C(=O)O)ccc1O (racemic) [(±)-Vanillylmandelic acid] | 0.0741
CSc1nc(N)c2ncn([C@@H]3O[C@H](COP(=O)(O)OP(=O)(O)OP(=O)(O)O)[C@H](O)C3O)c2n1 (some centres not stated) [2-Methylthioadenosine triphosphate tetrasodium] | -0.0581
CN1[C@@H](CC(=O)c2ccccc2)CCC[C@H]1C[C@H](O)c1ccccc1 [alpha-Lobeline hydrochloride] | 0.0476
CCCCNC(=O)NS(=O)(=O)c1ccc(C)cc1 [Tolbutamide] | 0.109

Structure (SMILES) | cFRET/donor change
Cc1cc2c(cc1Cl)N(C(=O)Nc1cccc3ncccc13)CC2 | -0.136
CCCCCCCCCCC/C=C\C(C)(C)/C=C\CCCC(=O)O [7,7-Dimethyl-(5Z,8Z)-eicosadienoic acid] | 0.0414
N=C(N)NCCC[C@H](N)C(=O)O [L-Arginine] | -0.123
CNCCC(Oc1ccc(C(F)(F)F)cc1)c1ccccc1 (configuration not stated) [Fluoxetine hydrochloride] | 1.07
O=P(O)(O)C(Cl)(Cl)P(=O)(O)O [Clodronic acid] | 0.14
O=C1CCc2cc(OCCCCc3nnnn3C3CCCCC3)ccc2N1 [Cilostazol] | 0.239
C=C(C)[C@@H]1CC=C(C(=O)O)CC1 [(-)-Perillic acid] | 0.0282
COC(=O)[C@@H]1[C@H]2C[C@H]3c4[nH]c5ccccc5c4CCN3C[C@@H]2CC[C@@H]1O [Yohimbine hydrochloride] | 0.212
CC1(C)NC(=O)N(c2ccc([N+](=O)[O-])c(C(F)(F)F)c2)C1=O [Nilutamide] | 0.154
CC(C)C[C@H](NC(=O)[C@H]1O[C@@H]1C(=O)O)C(=O)NCCCCN=C(N)N | 0.0608
CC(C)COC(=O)OCN1C(=O)CN(CCN2CC(=O)N(COC(=O)OCC(C)C)C(=O)C2)CC1=O [Sobuzoxane] | 0.0551
O=C(Nc1nc2ccccc2n1CCN1CCOCC1)c1cccc([N+](=O)[O-])c1 [IRAK-1/4 Inhibitor I] | 0.326
CC(=O)SCC[N+](C)(C)C [Acetylthiocholine chloride] | 0.0278
Nc1ccc(-c2ccc3ccccc3n2)cc1 [BF-170 hydrochloride] | -0.429
N=C(N)NC(=O)c1nc(Cl)c(N)nc1N [Amiloride hydrochloride] | -0.0692
CC(C)NCC(O)c1ccc(NS(C)(=O)=O)cc1 (racemic) [(±)-Sotalol hydrochloride] | 0.137
O=[N+]([O-])c1cccc2c(Br)[nH]nc12 [3-Bromo-7-nitroindazole] | -0.244
NS(=O)(=O)c1cc(C(=O)O)c(NCc2ccco2)cc1Cl [Furosemide] | 0.0283
NC(=S)c1ccc[n+]([C@@H]2O[C@@H](COP(=O)([O-])OP(=O)(O)OC[C@H]3O[C@@H](n4cnc5c(N)ncnc54)C(OP(=O)(O)O)[C@H]3O)C(O)C2O)c1 (some centres not stated) [Thio-NADP sodium] | -0.317
CCc1cncnc1N1CCN(Cc2nc3ccc(C(F)(F)F)cc3[nH]2)CC1 | 0.351
CN[C@H](CC(C)C)C(=O)N[C@H]1C(=O)N[C@@H](CC(N)=O)C(=O)N[C@H]2C(=O)N[C@H]3C(=O)N[C@H](C(=O)N[C@H](C(=O)O)c4cc(O)cc(O)c4-c4cc3ccc4O)[C@H](O)c3ccc(c(Cl)c3)Oc3cc2cc(c3O[C@@H]2O[C@H](CO)[C@@H](O)[C@H](O)[C@H]2O[C@H]2C[C@](C)(N)[C@H](O)[C@H](C)O2)Oc2ccc(cc2Cl)[C@H]1O [Vancomycin hydrochloride from Streptomyces orientalis] | 0.153
NS(=O)(=O)c1cc2c(cc1Cl)N=CNS2(=O)=O [Chlorothiazide] | 0.223
CC(C)COCC(CN(Cc1ccccc1)c1ccccc1)N1CCCC1 (configuration not stated) [Bepridil hydrochloride] | 0.0615
Cn1c(=O)c2[nH]c(C3CCCC3)nc2n(C)c1=O [8-Cyclopentyl-1,3-dimethylxanthine] | 0.158
NC(=O)c1ncn([C@@H]2O[C@H](CO)[C@@H](O)[C@H]2O)n1 [Ribavirin] | 0.0289
Cc1[nH]c(=O)c(C#N)cc1-c1ccncc1 [Milrinone] | 0.195

Entries shown so far that contain fluorine:
Structure (SMILES) | cFRET/donor change
CNCCC(Oc1ccc(C(F)(F)F)cc1)c1ccccc1 (configuration not stated) [Fluoxetine hydrochloride] | 1.07
CC1(C)NC(=O)N(c2ccc([N+](=O)[O-])c(C(F)(F)F)c2)C1=O [Nilutamide] | 0.154
CCc1cncnc1N1CCN(Cc2nc3ccc(C(F)(F)F)cc3[nH]2)CC1 | 0.351

Additional structures follow.

Structure (SMILES) | cFRET/donor change
CN(C)CCC=C1c2ccccc2CCc2ccccc21 [Amitriptyline hydrochloride] | 0.274
Cn1c(=O)c2[nH]cnc2n(C)c1=O [Aminophylline ethylenediamine] | 0.314
COc1cc(/C=C/C(=O)N2CCC=CC2=O)cc(OC)c1OC [Piperlongumine] | -0.315
C=C[C@H]1CN2CC[C@H]1C[C@@H]2[C@@H](O)c1ccnc2ccc(OC)cc12 [Quinidine sulfate] | 0.441
CNC(=O)[C@H]1O[C@@H](n2cnc3c(NCc4cccc(I)c4)ncnc32)[C@H](O)[C@@H]1O | 0.503
O=C1CCC(N2C(=O)c3ccccc3C2=O)C(=O)N1 (racemic) [(±)-Thalidomide] | -0.132
COc1ccc(S(=O)(=O)Nc2nc(-c3cccc([N+](=O)[O-])c3)cs2)cc1OC | 0.458
NC(N)=NCc1cccc(I)c1 [m-Iodobenzylguanidine hemisulfate] | -0.0455
NS(=O)(=O)c1cccc2c1c([N+](=O)[O-])cc1nc(O)c(O)nc12 [NBQX disodium] | -0.264
N#CC(=C(/N)Sc1ccccc1N)/C(C#N)=C(/N)Sc1ccccc1N | 1.14
CN(C)c1cc2c(Nc3ccc4c(cnn4Cc4ccccc4)c3)ncnc2cn1 | -7.46
C=C1C[C@@]23CC[C@H]4[C@@](C)(CCC[C@@]4(C)C(=O)O[C@@H]4O[C@H](CO)[C@@H](O)[C@H](O)[C@H]4O)[C@@H]2CC[C@]1(O[C@@H]1O[C@H](CO)[C@@H](O)[C@H](O)[C@H]1O[C@@H]1O[C@H](CO)[C@@H](O)[C@H](O)[C@H]1O)C3 [Stevioside] | 0.0782
NC(=O)C(=O)O [Sodium Oxamate] | 0.258
COc1cc(Cc2cnc(N)nc2N)cc(OC)c1OC [Trimethoprim] | -0.0387
CN1CCc2ccccc2Cc2[nH]c3ccccc3c2CC1 | 0.57
Nc1ccc(-c2nc3ccc(-c4nc5ccc(N)cc5[nH]4)cc3[nH]2)cc1 | -0.494
O=c1ccc2ccc(O)c(O)c2o1 [Daphnetin] | 0.438
CC(=O)NCCc1c[nH]c2ccc(O)cc12 [N-Acetyl-5-hydroxytryptamine] | 0.125
CCCN(CCC)C(=O)C(CCC(=O)O)NC(=O)c1ccccc1 (configuration not stated) [Proglumide] | 0.00228
CN1CCC(=C2c3ccccc3CC(=O)c3sccc32)CC1 [Ketotifen fumarate] | 2.99
COc1ccccc1N1CCN(CC(O)COc2cccc3ccccc23)CC1 (configuration not stated) [Naftopidil dihydrochloride] | 0.0361
COCCOc1cc2nc[nH]c(=O)c2cc1OCCOC | 0.343
S=C(Nc1ccccc1)Nc1nccs1 [1-Phenyl-3-(2-thiazolyl)-2-thiourea] | -0.184
CS(=O)(=O)c1cccc(CNc2nc(Nc3ccc4c(c3)CCC(=O)N4)ncc2C(F)(F)F)c1 | 2
COc1ccc(-c2ccc(=N)n(CCCC(=O)O)n2)cc1 | -0.0951
